The other results are listed elsewhere or left out.
Assays:
Assay in all cases: log2 fold change, soluble protein after heating vs DMSO (PISA); higher = thermal stabilisation; K562 lysate, 10 uM; active = over 0.2 and 3.5 SD of the protein, either way, in both replicates (recomputed)
[1] = compound: C1=CC=C(C=C1)[C@H](COC2=CC3=C(C=C2)NC(=O)N3)NC(=O)C4=CC=CN(C4=O)CC5=CC(=C(C=C5)F)F
Method in brief: (§1)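 A 30 min treatment with 10 μM compound was applied to crude K562 extract at 1 mg/mL protein in PBS pH 7.4 with 1 mM MgCl2. Heating for 3 min spanned 48°C-58°C, after which aliquots were pooled, adjusted to 0.5% NP-40 at 4°C and spun at 21,000xg for 90 min. TMTpro 16plex LC-MS/MS of the supernatant, with channel sums equalised, gave values recorded as log-two fold change in thermal stability against solvent controls, from duplicates.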

By UniProt entry, the sequences of proteins in these tests, tags left out. Where a name states a change or a piece, a line headed by the entry shows the natural chain unless it says otherwise.
UniProt Q5T292: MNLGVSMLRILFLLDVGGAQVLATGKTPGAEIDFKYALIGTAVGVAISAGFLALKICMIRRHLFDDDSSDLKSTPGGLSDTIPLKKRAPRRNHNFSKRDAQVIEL
UniProt Q96A57: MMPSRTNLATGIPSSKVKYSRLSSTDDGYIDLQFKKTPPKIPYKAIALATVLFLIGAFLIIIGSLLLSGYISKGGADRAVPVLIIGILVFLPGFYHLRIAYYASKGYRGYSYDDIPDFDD
UniProt Q6PI78: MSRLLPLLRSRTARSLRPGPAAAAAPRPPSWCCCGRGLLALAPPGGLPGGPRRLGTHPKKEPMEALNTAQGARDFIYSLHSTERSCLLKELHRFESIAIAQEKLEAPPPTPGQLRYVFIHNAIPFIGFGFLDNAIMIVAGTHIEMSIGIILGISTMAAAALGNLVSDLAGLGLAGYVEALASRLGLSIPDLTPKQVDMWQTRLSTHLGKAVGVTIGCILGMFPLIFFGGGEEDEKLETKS
UniProt P42167: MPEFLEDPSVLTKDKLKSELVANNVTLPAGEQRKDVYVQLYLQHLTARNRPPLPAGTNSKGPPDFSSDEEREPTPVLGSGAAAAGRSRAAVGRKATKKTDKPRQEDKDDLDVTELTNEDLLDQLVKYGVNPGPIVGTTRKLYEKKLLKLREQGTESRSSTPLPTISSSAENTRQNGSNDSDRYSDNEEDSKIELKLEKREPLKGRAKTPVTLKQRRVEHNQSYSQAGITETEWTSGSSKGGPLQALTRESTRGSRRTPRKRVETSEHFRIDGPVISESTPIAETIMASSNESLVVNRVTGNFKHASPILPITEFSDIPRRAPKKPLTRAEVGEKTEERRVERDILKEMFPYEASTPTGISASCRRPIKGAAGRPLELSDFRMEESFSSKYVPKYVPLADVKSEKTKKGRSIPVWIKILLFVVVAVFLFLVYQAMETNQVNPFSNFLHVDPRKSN
UniProt P67936, whole entry, looked up: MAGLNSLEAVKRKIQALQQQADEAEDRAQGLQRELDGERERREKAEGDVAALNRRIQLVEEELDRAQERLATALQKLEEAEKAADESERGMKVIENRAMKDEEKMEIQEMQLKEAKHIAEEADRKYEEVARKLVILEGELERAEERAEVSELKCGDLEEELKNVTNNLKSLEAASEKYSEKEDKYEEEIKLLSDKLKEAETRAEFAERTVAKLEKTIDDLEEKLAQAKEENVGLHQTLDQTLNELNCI
UniProt Q02880: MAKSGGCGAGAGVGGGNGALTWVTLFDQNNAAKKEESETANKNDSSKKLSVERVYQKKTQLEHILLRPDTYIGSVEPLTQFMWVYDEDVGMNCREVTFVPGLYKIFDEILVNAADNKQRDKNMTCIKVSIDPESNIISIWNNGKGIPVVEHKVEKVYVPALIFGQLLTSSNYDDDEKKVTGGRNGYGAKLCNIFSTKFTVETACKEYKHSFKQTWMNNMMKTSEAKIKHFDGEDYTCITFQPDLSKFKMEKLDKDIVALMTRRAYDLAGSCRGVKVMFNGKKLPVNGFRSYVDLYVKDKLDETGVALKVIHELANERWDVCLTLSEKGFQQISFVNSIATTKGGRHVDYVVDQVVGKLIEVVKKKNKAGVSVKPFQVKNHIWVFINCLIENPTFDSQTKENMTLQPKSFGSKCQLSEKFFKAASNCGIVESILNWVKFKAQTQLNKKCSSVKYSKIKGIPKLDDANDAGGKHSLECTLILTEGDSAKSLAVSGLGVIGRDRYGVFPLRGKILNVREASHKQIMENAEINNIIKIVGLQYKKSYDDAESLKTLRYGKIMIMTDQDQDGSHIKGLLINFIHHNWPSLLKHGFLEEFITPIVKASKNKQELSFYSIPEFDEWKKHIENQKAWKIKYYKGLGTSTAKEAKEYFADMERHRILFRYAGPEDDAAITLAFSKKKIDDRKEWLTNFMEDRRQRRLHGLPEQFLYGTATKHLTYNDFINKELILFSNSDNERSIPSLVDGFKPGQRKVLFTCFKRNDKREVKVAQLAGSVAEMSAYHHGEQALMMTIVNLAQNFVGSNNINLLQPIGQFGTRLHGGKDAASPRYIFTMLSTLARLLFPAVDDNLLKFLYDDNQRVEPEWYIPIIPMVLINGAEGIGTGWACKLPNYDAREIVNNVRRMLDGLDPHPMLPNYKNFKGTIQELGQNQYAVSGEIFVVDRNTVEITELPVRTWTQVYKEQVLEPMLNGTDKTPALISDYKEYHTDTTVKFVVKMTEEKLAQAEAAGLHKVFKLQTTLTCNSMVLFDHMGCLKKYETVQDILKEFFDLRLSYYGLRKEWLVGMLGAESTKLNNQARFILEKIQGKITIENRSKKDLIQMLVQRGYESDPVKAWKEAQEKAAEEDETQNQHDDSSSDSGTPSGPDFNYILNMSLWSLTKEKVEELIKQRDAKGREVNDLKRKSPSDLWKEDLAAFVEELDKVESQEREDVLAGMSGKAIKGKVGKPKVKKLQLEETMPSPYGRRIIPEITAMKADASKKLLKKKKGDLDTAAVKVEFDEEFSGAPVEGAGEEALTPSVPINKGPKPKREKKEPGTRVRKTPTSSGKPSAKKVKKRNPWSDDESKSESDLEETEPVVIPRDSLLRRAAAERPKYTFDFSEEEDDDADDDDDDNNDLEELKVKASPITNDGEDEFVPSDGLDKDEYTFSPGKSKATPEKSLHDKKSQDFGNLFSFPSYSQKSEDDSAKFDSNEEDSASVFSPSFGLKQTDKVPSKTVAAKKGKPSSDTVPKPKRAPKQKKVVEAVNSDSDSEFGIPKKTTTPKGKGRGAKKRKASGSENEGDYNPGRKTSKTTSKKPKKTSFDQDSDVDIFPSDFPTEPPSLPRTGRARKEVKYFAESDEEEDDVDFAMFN
UniProt Q9ULW0, whole entry, looked up: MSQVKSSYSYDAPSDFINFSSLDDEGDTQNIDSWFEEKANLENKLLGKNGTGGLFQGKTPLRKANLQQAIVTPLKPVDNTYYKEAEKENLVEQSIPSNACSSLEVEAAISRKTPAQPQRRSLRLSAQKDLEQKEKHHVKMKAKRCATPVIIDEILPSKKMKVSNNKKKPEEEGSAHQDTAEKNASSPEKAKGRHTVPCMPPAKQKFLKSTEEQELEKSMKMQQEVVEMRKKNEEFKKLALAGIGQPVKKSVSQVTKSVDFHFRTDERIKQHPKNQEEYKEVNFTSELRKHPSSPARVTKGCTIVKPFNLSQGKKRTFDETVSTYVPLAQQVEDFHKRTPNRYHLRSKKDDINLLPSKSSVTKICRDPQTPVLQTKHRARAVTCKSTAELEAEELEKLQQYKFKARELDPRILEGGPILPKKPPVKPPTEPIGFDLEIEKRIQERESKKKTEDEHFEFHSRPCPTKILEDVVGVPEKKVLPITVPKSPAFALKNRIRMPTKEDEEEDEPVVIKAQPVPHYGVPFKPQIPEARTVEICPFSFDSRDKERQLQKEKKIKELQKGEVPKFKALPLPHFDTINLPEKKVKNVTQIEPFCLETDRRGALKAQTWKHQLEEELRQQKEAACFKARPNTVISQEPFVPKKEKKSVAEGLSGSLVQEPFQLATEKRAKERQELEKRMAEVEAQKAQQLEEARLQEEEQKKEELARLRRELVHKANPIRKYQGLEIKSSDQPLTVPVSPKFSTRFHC
UniProt Q9H3S4: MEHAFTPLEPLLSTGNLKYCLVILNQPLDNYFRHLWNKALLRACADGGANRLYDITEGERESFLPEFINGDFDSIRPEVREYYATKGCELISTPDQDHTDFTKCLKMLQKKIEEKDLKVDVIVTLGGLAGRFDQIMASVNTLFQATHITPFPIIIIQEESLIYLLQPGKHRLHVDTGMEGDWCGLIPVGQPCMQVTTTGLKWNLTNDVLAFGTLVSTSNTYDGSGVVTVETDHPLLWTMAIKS
UniProt Q9P0T7: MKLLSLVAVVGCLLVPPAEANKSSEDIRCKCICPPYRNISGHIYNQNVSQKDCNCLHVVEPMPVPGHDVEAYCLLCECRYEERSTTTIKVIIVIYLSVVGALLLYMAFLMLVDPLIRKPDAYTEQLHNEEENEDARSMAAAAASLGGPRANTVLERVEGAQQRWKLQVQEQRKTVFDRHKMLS
UniProt O14657: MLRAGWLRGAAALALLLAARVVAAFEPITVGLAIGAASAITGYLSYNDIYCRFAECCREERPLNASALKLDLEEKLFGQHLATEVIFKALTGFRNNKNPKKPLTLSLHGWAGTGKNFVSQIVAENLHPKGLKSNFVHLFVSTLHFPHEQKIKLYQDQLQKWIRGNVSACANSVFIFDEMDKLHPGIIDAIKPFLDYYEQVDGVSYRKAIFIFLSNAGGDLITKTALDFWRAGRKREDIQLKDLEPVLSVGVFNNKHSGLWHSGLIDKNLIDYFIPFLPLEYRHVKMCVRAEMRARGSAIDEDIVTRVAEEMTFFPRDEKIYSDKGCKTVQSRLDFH
UniProt Q96B49: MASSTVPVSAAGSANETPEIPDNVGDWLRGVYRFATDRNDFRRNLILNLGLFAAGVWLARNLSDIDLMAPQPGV
UniProt P60174, whole entry, looked up: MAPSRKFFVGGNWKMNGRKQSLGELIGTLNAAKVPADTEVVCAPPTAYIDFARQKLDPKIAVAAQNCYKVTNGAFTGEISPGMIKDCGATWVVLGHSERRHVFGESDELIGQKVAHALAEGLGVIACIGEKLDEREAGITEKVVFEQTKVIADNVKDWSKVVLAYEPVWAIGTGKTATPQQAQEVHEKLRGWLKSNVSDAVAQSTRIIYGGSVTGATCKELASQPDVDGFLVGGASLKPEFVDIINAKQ
UniProt Q9H496: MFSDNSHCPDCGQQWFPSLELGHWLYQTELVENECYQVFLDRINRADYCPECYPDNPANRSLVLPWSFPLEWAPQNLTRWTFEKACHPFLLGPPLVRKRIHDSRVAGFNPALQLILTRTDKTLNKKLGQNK
UniProt Q5JU69: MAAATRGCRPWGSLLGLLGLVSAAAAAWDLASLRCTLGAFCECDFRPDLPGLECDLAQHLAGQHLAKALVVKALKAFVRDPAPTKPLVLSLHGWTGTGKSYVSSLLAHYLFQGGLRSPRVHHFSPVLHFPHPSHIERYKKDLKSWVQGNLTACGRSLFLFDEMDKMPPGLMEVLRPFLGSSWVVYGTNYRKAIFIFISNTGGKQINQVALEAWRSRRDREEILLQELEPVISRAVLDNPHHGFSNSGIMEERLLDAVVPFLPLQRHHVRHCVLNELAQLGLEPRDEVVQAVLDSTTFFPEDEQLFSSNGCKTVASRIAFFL
UniProt O94842: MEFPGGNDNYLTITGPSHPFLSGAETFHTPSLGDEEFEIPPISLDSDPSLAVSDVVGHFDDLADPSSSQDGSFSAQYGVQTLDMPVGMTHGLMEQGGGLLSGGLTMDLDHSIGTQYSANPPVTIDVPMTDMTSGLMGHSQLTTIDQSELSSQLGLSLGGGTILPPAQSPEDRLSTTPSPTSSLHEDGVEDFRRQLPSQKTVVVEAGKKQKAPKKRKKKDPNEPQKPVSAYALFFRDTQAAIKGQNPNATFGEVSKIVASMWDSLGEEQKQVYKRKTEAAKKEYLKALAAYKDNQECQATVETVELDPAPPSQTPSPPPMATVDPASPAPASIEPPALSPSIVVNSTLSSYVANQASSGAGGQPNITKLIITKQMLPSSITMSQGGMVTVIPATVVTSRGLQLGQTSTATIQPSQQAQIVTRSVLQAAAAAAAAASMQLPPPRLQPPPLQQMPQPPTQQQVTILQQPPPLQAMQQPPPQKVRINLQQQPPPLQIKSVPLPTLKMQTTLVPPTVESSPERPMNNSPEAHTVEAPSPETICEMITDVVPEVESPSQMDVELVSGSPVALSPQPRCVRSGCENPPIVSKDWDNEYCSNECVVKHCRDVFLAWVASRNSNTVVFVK
UniProt O14656: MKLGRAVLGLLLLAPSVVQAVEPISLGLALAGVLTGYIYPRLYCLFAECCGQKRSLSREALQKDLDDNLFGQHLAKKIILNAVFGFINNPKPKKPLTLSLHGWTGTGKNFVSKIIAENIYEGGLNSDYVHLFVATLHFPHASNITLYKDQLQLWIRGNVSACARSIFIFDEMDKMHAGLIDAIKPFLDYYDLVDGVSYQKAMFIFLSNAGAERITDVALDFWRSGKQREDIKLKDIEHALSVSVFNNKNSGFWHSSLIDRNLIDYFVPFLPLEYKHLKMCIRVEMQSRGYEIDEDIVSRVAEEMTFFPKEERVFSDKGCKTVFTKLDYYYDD
UniProt O75674: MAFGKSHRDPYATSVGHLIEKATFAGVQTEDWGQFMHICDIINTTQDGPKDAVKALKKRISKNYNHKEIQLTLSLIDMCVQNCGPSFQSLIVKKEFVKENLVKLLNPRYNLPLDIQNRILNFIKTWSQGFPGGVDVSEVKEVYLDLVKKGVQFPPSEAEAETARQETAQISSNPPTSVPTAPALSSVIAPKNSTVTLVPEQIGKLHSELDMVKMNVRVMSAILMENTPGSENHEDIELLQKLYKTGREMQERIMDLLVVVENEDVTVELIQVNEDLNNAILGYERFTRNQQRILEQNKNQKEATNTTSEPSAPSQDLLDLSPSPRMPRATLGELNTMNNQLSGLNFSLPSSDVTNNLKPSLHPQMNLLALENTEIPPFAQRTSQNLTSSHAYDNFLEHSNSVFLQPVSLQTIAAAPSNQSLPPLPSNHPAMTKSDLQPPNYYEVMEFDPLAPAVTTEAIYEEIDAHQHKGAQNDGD

[2] = compound: CC1=C(SC2=C1C(=N[C@H](C3=NN=C(N32)C)CC(=O)N)C4=CC=C(C=C4)Cl)C
Method in brief: as §1

[3] = compound: CC1=C2C(=CC=C1)N=C(N(C2=O)C3=CC=CC=C3C)CN4C=NC5=C(N=CN=C54)N
Method in brief: as §1

[4] = compound: Cc1sc2c(c1C)C(c1ccc(Cl)cc1)=N[C@@H](CC(=O)OC(C)(C)C)c1nnc(C)n1-2
Method in brief: as §1

[5] = compound: c1ccc([C@@H]2C[C@H]2NC2CCNCC2)cc1
Method in brief: as §1

Measured: log2 fold change

TMOD1 (UniProt P28289)
inactive: [1] -0.003 | [2] 0.021 | [3] 0.043 | [4] 0.017 | [5] 0.002

TMEM273 isoform 2 (UniProt Q5T292)
inactive: [1] 0.083 | [2] 0.082

TMEM230 isoform 2 (UniProt Q96A57)
inactive: [1] -0.046 | [2] -0.117 | [3] -0.164 | [4] -0.076 | [5] -0.106

TMEM65 (UniProt Q6PI78)
inactive: [1] -0.06 | [2] -0.041 | [3] 0.134 | [4] -0.129 | [5] 0.051

TMEM38B (UniProt Q9NVV0)
inactive: [1] 0.003 | [2] -0.045 | [3] -0.029 | [4] -0.082 | [5] -0.16

TMPO isoform 2 (UniProt P42167)
inactive: [1] 0.11 | [2] 0.088 | [3] 0.033 | [4] -0.069

TPM4 (UniProt P67936)
inactive: [1] -0.003 | [2] 0.057 | [3] -0.021 | [4] -0.025 | [5] -0.04

TOP2B isoform 2 (UniProt Q02880)
inactive: [1] 0.007 | [2] 0.013 | [3] -0.025 | [4] -0.007 | [5] 0.132

TPX2 (UniProt Q9ULW0)
inactive: [1] 0.04 | [2] -0.006 | [3] 0.008 | [4] -0.003 | [5] 0

TPK1 (UniProt Q9H3S4)
inactive: [1] -0.173 | [2] 0.036 | [3] 0.027 | [4] 0.017 | [5] 0.01

Retrieved one by one from the list above (2):
TOP2B isoform 2 (UniProt Q02880)
inactive: [1] 0.007 | [2] 0.013 | [3] -0.025 | [4] -0.007 | [5] 0.132

TMEM38B (UniProt Q9NVV0)
inactive: [1] 0.003 | [2] -0.045 | [3] -0.029 | [4] -0.082 | [5] -0.16

Remaining list, next part.

TMEM9 (UniProt Q9P0T7)
inactive: [1] 0.028 | [2] -0.036 | [3] 0.004 | [4] 0.004 | [5] 0.075

TOE1 (UniProt Q96GM8)
inactive: [1] 0.063 | [2] -0.01 | [3] 0.03 | [4] 0.032 | [5] 0.01

TOR1B (UniProt O14657)
inactive: [1] -0.003 | [2] 0.003 | [3] 0.066 | [4] 0.053 | [5] -0.022

TNRC6B (UniProt Q9UPQ9)
inactive: [1] -0.044 | [2] -0.02 | [3] -0.019 | [4] -0.003 | [5] -0.041

TOMM6 (UniProt Q96B49)
inactive: [1] -0.261 | [2] 0.026 | [3] 0.081 | [4] -0.134 | [5] 0.184

TPI1 (UniProt P60174)
inactive: [1] -0.015 | [2] -0.004 | [3] -0.038 | [4] -0.033 | [5] -0.039

TOP2A isoform 4 (UniProt P11388)
inactive: [1] -0.008 | [2] -0.008 | [3] 0.045 | [4] -0.033 | [5] -0.041

TOR1AIP2 (UniProt Q9H496)
inactive: [1] -0.018 | [2] 0.17 | [3] 0.173 | [4] -0.116 | [5] 0.145

TONSL (UniProt Q96HA7)
inactive: [1] 0.008 | [2] 0.018 | [3] 0.045 | [4] 0.04 | [5] 0.066

TOR2A (UniProt Q5JU69)
inactive: [1] 0.037 | [2] 0.002 | [3] -0.014 | [4] -0.039 | [5] 0.103

TNFRSF1B (UniProt P20333)
inactive: [1] 0.143 | [2] -0.046 | [3] -0.086 | [4] -0.183 | [5] -0.107

TMEM70 (UniProt Q9BUB7)
inactive: [1] -0.029 | [2] 0.045 | [3] 0.021 | [4] 0.013 | [5] -0.083

TOX4 (UniProt O94842)
inactive: [1] -0.011 | [2] 0.001 | [3] -0.021 | [4] -0.019 | [5] -0.146

TOR1A (UniProt O14656)
inactive: [1] 0.001 | [2] 0.034 | [3] 0.052 | [4] 0.029 | [5] -0.031

TOM1L1 (UniProt O75674)
inactive: [1] -0.013 | [2] 0.029 | [3] -0.005 | [4] 0.053 | [5] -0.034
